Measurements: article PMC12033915
Numbering of substitutions follows the chain as printed. Results are given in words; binding and its absence hold for the method and conditions named. For some of these results: Binding seen in cells or lysates may run through a third protein. Some binding calls cover weakened binding; strength is not graded here. For some of these results: Where a sequence is shown, tags or fusion partners need not be part of it. Each block holds one molecule with its values, some of them ahead of it.

Amino acid sequences for entries named in this document (tags omitted). A change or cut given only in a name is not applied to a line headed by its entry.
UniProt P11940: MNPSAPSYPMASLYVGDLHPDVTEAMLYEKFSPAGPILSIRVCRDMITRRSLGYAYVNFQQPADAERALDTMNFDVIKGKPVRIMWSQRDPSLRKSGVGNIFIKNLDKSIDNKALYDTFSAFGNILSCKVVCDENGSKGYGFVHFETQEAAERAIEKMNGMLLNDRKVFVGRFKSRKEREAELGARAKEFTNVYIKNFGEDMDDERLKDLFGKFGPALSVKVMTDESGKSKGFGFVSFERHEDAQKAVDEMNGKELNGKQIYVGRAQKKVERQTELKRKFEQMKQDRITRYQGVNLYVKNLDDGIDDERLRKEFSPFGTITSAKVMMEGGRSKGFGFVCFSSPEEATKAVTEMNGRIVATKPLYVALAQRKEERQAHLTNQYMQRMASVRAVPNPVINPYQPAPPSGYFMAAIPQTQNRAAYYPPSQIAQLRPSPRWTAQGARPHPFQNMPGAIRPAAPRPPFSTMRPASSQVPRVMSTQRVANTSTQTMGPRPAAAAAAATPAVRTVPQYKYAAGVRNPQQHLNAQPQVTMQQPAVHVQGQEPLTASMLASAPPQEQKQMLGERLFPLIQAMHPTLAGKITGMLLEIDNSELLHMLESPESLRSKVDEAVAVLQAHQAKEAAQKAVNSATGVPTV

Legend:
[1] = target: T1, SLC27A5 (endogenous) (human (endogenous in SNU449 and HepG2)) (UniProt Q9Y2P5); test: co-IP; endogenous proteins, IP with anti-SLC27A5 and anti-PABPC1 in SNU449 cells and HepG2 cells, immunoblot
T1 sequence: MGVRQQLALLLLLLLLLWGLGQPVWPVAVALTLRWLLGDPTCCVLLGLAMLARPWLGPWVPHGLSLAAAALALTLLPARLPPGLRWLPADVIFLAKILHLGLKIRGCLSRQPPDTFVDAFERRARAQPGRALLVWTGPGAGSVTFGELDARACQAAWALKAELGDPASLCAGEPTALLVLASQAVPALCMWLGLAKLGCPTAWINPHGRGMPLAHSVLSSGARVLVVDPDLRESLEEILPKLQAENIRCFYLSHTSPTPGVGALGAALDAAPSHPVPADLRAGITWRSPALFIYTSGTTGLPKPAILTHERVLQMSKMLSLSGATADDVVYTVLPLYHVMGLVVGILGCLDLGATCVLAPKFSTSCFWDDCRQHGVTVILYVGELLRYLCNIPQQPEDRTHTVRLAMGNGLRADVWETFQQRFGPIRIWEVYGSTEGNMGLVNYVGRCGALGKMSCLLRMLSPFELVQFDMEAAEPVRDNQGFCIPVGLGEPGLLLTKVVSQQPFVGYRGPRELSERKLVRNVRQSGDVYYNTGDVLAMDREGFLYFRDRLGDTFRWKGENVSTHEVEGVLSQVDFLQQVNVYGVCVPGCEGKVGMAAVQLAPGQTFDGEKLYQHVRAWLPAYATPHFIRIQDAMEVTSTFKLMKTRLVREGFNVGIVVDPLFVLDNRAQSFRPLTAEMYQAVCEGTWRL

GST-SLC27A5 = target: T2, GST-SLC27A5 (UniProt Q9Y2P5); test: pull-down; purified GST-SLC27A5 and His-PABPC1 co-incubated with glutathione agarose beads at 4 °C for 3 h; wash buffer 137 mM NaCl, 2.7 mM KCl, 10 mM Na2HPO4, 2 mM KH2PO4, 0.5 % Triton X-100; Coomassie staining and immunoblot; both purified
T2 sequence: T1 sequence

[2] = target: T3, SLC27A5-Flag (solute carrier family 27 member 5) (UniProt Q9Y2P5); test: co-IP; cells transfected with plasmids for 48 h, NP-40 lysis buffer, protein A/G magnetic beads, immunoblot; cell line and tags not told (Fig. 1G, H; Fig. S1C; Fig. S3B-D; in Fig. S3C with and without SLC27A5, which enhanced PABPC1-RBBP7)
T3 sequence: T1 sequence

[3] = target: T3, SLC27A5-Flag (solute carrier family 27 member 5); test: co-IP; HEK-293 cells transfected with SLC27A5-Flag and PABPC1-HA for 48 h, NP-40 lysis buffer, IP with anti-HA or anti-Flag antibody, protein A/G magnetic beads, immunoblot
[4] = target: T4, SLC27A5-S296A (enzyme-inactive form of SLC27A5) (UniProt Q9Y2P5); test: co-IP; cells transfected with plasmids for 48 h, NP-40 lysis buffer, protein A/G magnetic beads, immunoblot; cell line and tags not told (Fig. 1G, H; Fig. S1C; Fig. S3B-D; in Fig. S3C with and without SLC27A5, which enhanced PABPC1-RBBP7)
T4 sequence: T1 sequence with S296A

[5] = target: PABPC1-HA (poly(A)-binding protein cytoplasmic 1) (UniProt P11940); test: as above

Molecule: PABPC1 (endogenous) (from UniProt P11940 1-636)
binding [1]: binds

Molecule: PABPC1 deletion mutant ΔN (amino acids 371–636) (from UniProt P11940 371-636) (domain or fragment)
binding [2]: binds

Molecule: PABPC1-HA (poly(A)-binding protein cytoplasmic 1) (from UniProt P11940 1-636)
binding [3]: binds
binding [2]: binds
binding [4]: binds

Next, values leading:

binding (GST-SLC27A5): binds
Molecule: His-PABPC1 (from UniProt P11940 1-636)

binding [5]: binds
B1: SLC27A5 deletion mutant ΔN (amino acids 78–690) (domain or fragment, UniProt Q9Y2P5 78-690)
chain: ARLPPGLRWLPADVIFLAKILHLGLKIRGCLSRQPPDTFVDAFERRARAQPGRALLVWTGPGAGSVTFGELDARACQAAWALKAELGDPASLCAGEPTALLVLASQAVPALCMWLGLAKLGCPTAWINPHGRGMPLAHSVLSSGARVLVVDPDLRESLEEILPKLQAENIRCFYLSHTSPTPGVGALGAALDAAPSHPVPADLRAGITWRSPALFIYTSGTTGLPKPAILTHERVLQMSKMLSLSGATADDVVYTVLPLYHVMGLVVGILGCLDLGATCVLAPKFSTSCFWDDCRQHGVTVILYVGELLRYLCNIPQQPEDRTHTVRLAMGNGLRADVWETFQQRFGPIRIWEVYGSTEGNMGLVNYVGRCGALGKMSCLLRMLSPFELVQFDMEAAEPVRDNQGFCIPVGLGEPGLLLTKVVSQQPFVGYRGPRELSERKLVRNVRQSGDVYYNTGDVLAMDREGFLYFRDRLGDTFRWKGENVSTHEVEGVLSQVDFLQQVNVYGVCVPGCEGKVGMAAVQLAPGQTFDGEKLYQHVRAWLPAYATPHFIRIQDAMEVTSTFKLMKTRLVREGFNVGIVVDPLFVLDNRAQSFRPLTAEMYQAVCEGTWRL
